# Library screening results

Source: ChEMBL document CHEMBL3988442, “University of Dundee, Small-Polar-MMV Screening Library” (2021).

A: 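Whole-cell assay for inhibitors of Mycobacterium tuberculosis growth, labelled Cornell in the record; the read-out is not stated. The concentration is filed as 10 mM, unlikely as a test dose, so the dose is not known. Higher means stronger inhibition (inferred from two other growth screens of the library). Size under these conditions: about 53,000 compounds, about 900 of them at 50% or above in at least one test.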
B: 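Assay on Mycobacterium tuberculosis, filed only as a heat shock assay from Cornell; the read-out is not stated. The concentration is filed as 10 mM, unlikely as a test dose, so the dose is not known. Higher reads as stronger inhibition (inferred: compounds with an IC50 in retests scored well above the rest). Size under these conditions: about 69,000 compounds, about 930 of them at 50% or above in at least one test.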

Values are the deposited “Percent Effect”, in %. The record does not define 0% and 100%; most values in the screen are far below 50% and negative numbers occur (in some assays of this library far below -100). The compounds are a random part of those screened.

* Cc1cc2nc(C(C)C)cc(NCCc3ccncc3)n2n1 : A: 28.73%; B: 5.483%
* CN(C)CC(=O)N1Cc2nnn(C)c2C(COCC2CC2)C1 (stereo unspecified) : A: -2.632%; B: 3.216%
* CSCc1ccc(C(=O)N2CCN(CC(C)O)CC2)cc1 (stereo unspecified) : A: -17.93%; B: -10.62%
* CCC(C)(CNC(=O)c1ccon1)NC(=O)c1ccon1 (stereo unspecified) : A: 10.69%; B: -32.83%
* CCN(Cc1ccncc1)CC1(O)CCN(C(=O)c2ccccc2C)C1 (stereo unspecified) : A: -21.9%; B: -6.513%
* COc1cccc(CNC(=O)c2cc(C)nc(N3CCCCC3)n2)c1 : B: 18.2%
* Cc1nc(C)n(CC2CCCN(CCOc3ccc(C#N)cc3)C2)n1 (stereo unspecified) : B: -11.77%
* Cc1noc(C2CCCN(C(=O)c3cncc(Br)c3)C2)n1 (stereo unspecified) : A: 18.29%; B: 16.71%
* COc1ccc(CC(=O)Nc2ccc3ncn(C)c(=O)c3c2)cc1 : A: 27.65%; B: -15.87%
* COCC(=O)N1CC[C@@H](OCC2CC2)[C@@H]1Cc1cccnc1.O=C(O)C(F)(F)F : A: 24.07%; B: -17.33%
* CC(C)(O)CCc1cccc(C(=O)NCc2cnn3cccnc23)c1 : B: -5.166%
* Cc1ccc(C(CNC(=O)Cc2nc3ncccn3n2)N(C)C)cc1 (stereo unspecified) : B: -2.655%
* Cc1cc(C(=O)N2CCC(O)(Cn3c(C)cc4ccncc43)CC2)on1 : A: 22.66%; B: -7.705%
* CCC(=O)N1CCCCC1c1nc(O)c2c(n1)CN(S(C)(=O)=O)CC2 (stereo unspecified) : A: -27.61%; B: -3.637%
* [H][C@@]12COC[C@]1(CNS(=O)(=O)CC)CN(Cc1cc(C)on1)C2 : A: -2.65%; B: 4.668%
* Cc1ccnn1CCC(=O)N1CCN(C2CCc3ccccc3C2)CC1 (stereo unspecified) : A: 14.45%; B: -8.92%
* O=C(O)C(F)(F)F.O=C(O)C(F)(F)F.[H][C@@]12CCCO[C@]1([H])[C@H](NC(=O)CC1CC1)CN(Cc1ccncc1)C2 : A: 1.536%; B: -8.527%
* CN(CCC#N)C(=O)Cc1csc(-c2ncccn2)n1 : B: -23.45%
* COC(=O)N1CC[C@@]2(C1)[C@H](OC)CN(c1ccccc1)S2(=O)=O : A: -0.8996%; B: 26.55%
* O=C(O)C(F)(F)F.O=C(O)C(F)(F)F.[H][C@@]12CN(C(=O)c3cccc(C)n3)C[C@]1([H])OCCN2c1ncccn1 : A: 29.96%; B: 6.838%
* CCc1noc(CN2CCC(NC(=O)c3ccc(C)s3)CC2)n1 : A: -4.425%; B: -18.19%
* CN1CCN(C(=O)C2SCCc3sccc32)CC1 (stereo unspecified) : A: -0.4217%; B: -43.83%
* [H][C@@]12CCN(C(=O)Cc3nc4nc(C)cc(C)n4n3)C[C@@]1(CO)CCCN2 : A: -8.113%; B: 12.44%
* Fc1cnc(N2CC[C@@H](N3CCOCC3)[C@@H]2Cc2ccccc2)nc1 : A: 9.32%; B: -17.37%
* CC(=O)N1CCN(C(=O)CCn2c(C)nc3ccccc3c2=O)CC1 : B: -21.44%
* [H][C@@]12COC[C@]1([H])[C@@H](OCC1CCOCC1)CN2Cc1ccco1 : A: 30.62%; B: 6.686%
* O=C(O)C(F)(F)F.O=C(O)C(F)(F)F.[H][C@@]12CN(CCOC)CCO[C@]1([H])CN(Cc1cc(OC)cc(OC)c1)C2 : A: -35.13%; B: -38.59%
* O=C(O)C(F)(F)F.[H][C@@]12CCN(S(=O)(=O)c3ccc(C)cc3)C[C@]1([H])[C@@H](CN(C)C)OC2 : A: 5.378%; B: -37.32%
* Clc1ccccc1CCn1ccnc1-c1cn(C2CCNCC2)nn1 : A: 8.194%; B: 17.64%
* Cc1nc[nH]c1CN(C)Cc1cnn(-c2ccc(F)cc2)c1 : A: -11.65%; B: -21.18%
* [H][C@@]12CCN(C[C@@H]1CN(CC)CC)[C@@H](CNC(=O)c1ccco1)C2 : A: -7.666%; B: -34.5%
* Cc1cccnc1NC(=O)CC1(Cn2cnnn2)CCCCC1 : A: 1.711%; B: 4.081%
* CC1CC(=O)c2cc(C(=O)N3CCOCC3)c(=O)[nH]c2C1 (stereo unspecified) : A: -14.63%; B: -4.748%
* O=C(O)C(F)(F)F.O=C(O)C(F)(F)F.[H][C@@]12COC[C@]1(CNC(=O)N1CCCC1)CN(Cc1cccc(C)n1)C2 : A: -1.856%; B: -8.65%
* CC(NC(=O)c1ccoc1)c1ccc2c(c1)CCC(=O)N2 (stereo unspecified) : B: 8.371%
* CC(C)Sc1ccc(N2CCN(Cc3ccccn3)CC2)nn1 : A: 13.07%; B: -17.55%
* Cc1cc(N2CCOC(c3ccc(N(C)C)cn3)C2)nc(N)n1 (stereo unspecified) : A: 23.86%; B: -6.662%
* Cc1c(C(C)NC(=O)C2CCCCC2)cnn1C (stereo unspecified) : B: -2.01%